Taken from: PubChem BioAssay AID1259405 (NCATS, 2018)

Test: 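Knock-downs that lift recombinant protein yield in hamster ovary cells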 (primary screen)
System: Chinese hamster CHO-K1 ovary cells with stable secreted eGFP expression
Reagent: single siRNA against mouse genes, 0.8 pmol siRNA per well (2 µl of 400 nM stock)
Time to read-out: 3 days
Detection: 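Percent of the per-plate non-targeting control median for intracellular GFP per well by laser scanning cytometry and for cell viability by ATP luminescence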
Direction: GFP, % of control: higher = more GFP per well, higher productivity
Active means: 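Called active when intracellular GFP, relative to negative control, is at or above 120%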
Here is one part, drawn at random, of about 50,000 reagents. Of all reagents, about 4,000 (8%) got an active call. 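Mouse siRNA library applied to hamster cells; one well for each siRNA.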 The numbers tell different reagents against one gene apart. Not all columns of the deposit are shown. Reagent sequences are not shown.

GFP, % of control, by gene symbol and reagent
Eda (GeneID 13607): #1 76.2 inactive; #2 92.5 inactive; #3 131 active
Zfp619 (GeneID 70227): #1 57.6 inactive; #2 58.1 inactive
Ints2 (GeneID 70422): #1 70.7 inactive; #2 36.9 inactive; #3 77.6 inactive
Cnih2 (GeneID 12794): #1 67.4 inactive; #2 58 inactive; #3 75.7 inactive
Mmp14 (GeneID 17387): #1 63.4 inactive; #2 109 inactive
Bltp2 (GeneID 72503): #1 32.1 inactive; #2 95.6 inactive; #3 93.5 inactive
Chrac1 (GeneID 93696): #1 93.8 inactive; #2 110 inactive
Scgb1b2 (GeneID 57426): #1 66 inactive; #2 115 inactive; #3 82.8 inactive
Aspn (GeneID 66695): #1 115 inactive; #2 91.7 inactive; #3 111 inactive
Gpr180 (GeneID 58245): #1 98.1 inactive; #2 75.4 inactive; #3 92.6 inactive
Chic1 (GeneID 12212): #1 73.5 inactive; #2 65.1 inactive; #3 75.8 inactive
Drap1 (GeneID 66556): #1 86.8 inactive; #2 72.4 inactive
Cavin3 (GeneID 109042): #1 69.1 inactive; #2 70.2 inactive; #3 80 inactive
Bbs9 (GeneID 319845): #1 74.8 inactive; #2 73.6 inactive; #3 74.1 inactive
Dct (GeneID 13190): #1 52 inactive; #2 61.8 inactive; #3 73.3 inactive
Dvl1 (GeneID 13542): #1 80.7 inactive; #2 69.2 inactive

7 neighbouring entries already listed:
GFP, % of control, by gene symbol and reagent
Bbs9 (GeneID 319845): #1 74.8 inactive; #2 73.6 inactive; #3 74.1 inactive
Dct (GeneID 13190): #1 52 inactive; #2 61.8 inactive; #3 73.3 inactive
Dvl1 (GeneID 13542): #1 80.7 inactive

The listing continues:
GFP, % of control, by gene symbol and reagent
Spef2 (GeneID 320277): #1 59.1 inactive; #2 77.4 inactive; #3 185 active
Cenpl (GeneID 70454): #1 83.7 inactive; #2 82.1 inactive; #3 68.4 inactive
Steap4 (GeneID 117167): #1 181 active; #2 90.3 inactive; #3 95.6 inactive
Ehd3 (GeneID 57440): #1 50.5 inactive; #2 93 inactive; #3 64.5 inactive
Plgrkt (GeneID 67759): #1 139 active; #2 71.9 inactive; #3 88.6 inactive
Spry3 (GeneID 236576): #1 34 inactive; #2 108 inactive; #3 113 inactive
Zkscan3 (GeneID 72739): #1 95.7 inactive; #2 54.3 inactive; #3 65.7 inactive
Cdh7 (GeneID 241201): #1 92.6 inactive; #2 85.9 inactive; #3 80.6 inactive
Gfi1b (GeneID 14582): #1 115 inactive; #2 95.2 inactive
Acp2 (GeneID 11432): #1 70.4 inactive; #2 54.8 inactive; #3 66.7 inactive
Ncbp2as2 (GeneID 106264): #1 85.4 inactive; #2 68.3 inactive; #3 126 active
Pla1a (GeneID 85031): #1 77.5 inactive; #2 96.3 inactive; #3 43.1 inactive
Or4f14 (GeneID 258023): #1 86.7 inactive; #2 79.9 inactive; #3 56 inactive
Scg2 (GeneID 20254): #1 77.4 inactive; #2 73.3 inactive; #3 94.7 inactive
